Measured values taken from BindingDB's records for doi:10.1016/s0014-2999(99)00610-x (Hungarian Academy of Sciences, 1999).

Amino acid sequences for entries named in this document (tags omitted).
UniProt P33533, whole entry: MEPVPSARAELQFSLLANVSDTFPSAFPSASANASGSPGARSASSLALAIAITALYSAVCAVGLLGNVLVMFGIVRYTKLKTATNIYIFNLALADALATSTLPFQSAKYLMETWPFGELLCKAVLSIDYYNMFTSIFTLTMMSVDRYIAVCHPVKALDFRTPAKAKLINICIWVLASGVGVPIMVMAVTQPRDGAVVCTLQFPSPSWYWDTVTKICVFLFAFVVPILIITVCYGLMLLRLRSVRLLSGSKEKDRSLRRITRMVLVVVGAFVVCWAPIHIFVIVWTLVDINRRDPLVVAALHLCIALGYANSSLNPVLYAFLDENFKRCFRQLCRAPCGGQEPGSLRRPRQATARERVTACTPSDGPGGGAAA

Target: Delta-type opioid receptor (Rattus norvegicus, UniProt P33533)

## CC[C@H](C)[C@H](NC(=O)[C@H](CCC(=O)O)NC(=O)[C@H](Cc1ccccc1)NC(=O)[C@@H](C)NC(=O)[C@@H](N)Cc1ccc(O)cc1)C(=O)N[C@H](C(=O)NCC(N)=O)[C@@H](C)CC [(S)-4-((S)-2-{(R)-2-[(S)-2-Amino-3-(4-hydroxy-phenyl)-propionylamino]-propionylamino}-3-phenyl-propionylamino)-4-{(1S,2S)-1-[(1S,2S)-1-(carbamoylmethyl-carbamoyl)-2-methyl-butylcarbamoyl]-2-methyl-butylcarbamoyl}-butyric acid]
  Ki: 1900 nM
